# Measurements taken from PubChem BioAssay AID258 (DTP/NCI, 2004).
# The list shows only some results of the screen, not a fair sample: it is rich in T/C values a quarter to a half above the control, in often repeated tests (any T/C) and in doses without a T/C. Other doses and runs of a compound stand elsewhere. T/C gives the treated animals as a percentage of the vehicle group. Some doses have a count of surviving animals in place of a T/C: the source files T/C as zero there, which appears to mark a toxic dose or a test without result, not a measured value. Some survivor counts are full or nearly so, which does not show that the dose was tolerated: the source hardly ever lists a survival T/C far under the control, and the zero likely stands for such cases as well. Counts of survivors are from the toxicity check (mostly the fifth day) where no day follows; animals may have died later. Schedule codes are those of the source, read here as Q, the interval in days (D) or hours (H), X, the number of doses. Some schedule codes hold Z or #, which are not explained here. Where survival is the endpoint, this PubChem deposit counts one and a half times the control or more as active, and values a quarter to a half above the control carry no call in these data; other NCI protocols may use other cut-offs. Some entries hold several experiments; the values are given in rising order. Some T/C values carry the count of animals alive at the toxicity check (mostly the fifth day); where none is given, no animal had died by that day. Starred links: 1 amine or outer side, 2 acyl side, 3 side chain; linkers in the order of their positions; H or OH if unused. Positions of bridges follow the written chain, without caps; N, C: chain ends. Non-standard residues stand in square brackets, D forms with d. Residues, ends and D or L forms follow the SMILES beside them. Chains are numbered I, II in the order given. Actinocin(9to1) = Cc1c2oc3c(C)ccc(C(=O)[*:1])c3nc-2c(C(=O)[*:2])c(N)c1=O; aThr = C[C@H](O)[C@H](N)C(=O)O; NMeV = CN[C@H](C(=O)O)C(C)C; Sar = CNCC(=O)O
# Test system: CD2F1 mice, L1210 leukemia sc, survival T/C
# Assay: NCI In Vivo Anticancer Drug Screen. Data for tumor model L1210 Leukemia (subcutaneous) in CD2F1 (CDF1) mice
# Conditions: T/C endpoint: median survival time, higher T/C = longer survival
# Procedure, shortened: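 T/C ratio: treated-group survival or tumor size over vehicle-control group measurement, in mice carrying transplanted tumors.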
# [1] = dose: 20.0 mg/kg/injection, schedule: Q01DX009 (sc), vehicle: saline
compound,measurement,setting,value
O=c1[nH]c(=O)n(C2CC(O)C(CO)O2)cc1C(F)(F)F (configuration not stated),T/C,"dose: 20.0 mg/kg/injection, schedule: Q01DX009 (ip), vehicle: saline with Tween-80, evaluated on day 30",143 % of control
same,T/C,"dose: 20.0 mg/kg/injection, schedule: Q01DX009 (ip), vehicle: saline with Tween-80, evaluated on day 45",133 % of control
same,T/C,"dose: 20.0 mg/kg/injection, schedule: Q01DX009 (sc), vehicle: saline with Tween-80",131 % of control
same,T/C,[1],143 % of control
same,survivor count,[1],5 of 10
same,T/C,"dose: 27.0 mg/kg/injection, schedule: Q01DX009 (ip), vehicle: saline with Tween-80",134 % of control
same,T/C,"dose: 30.0 mg/kg/injection, schedule: Q01DX009 (sc), vehicle: saline with Tween-80",131 % of control
same,T/C,"dose: 40.0 mg/kg/injection, schedule: Q01DX009 (ip), vehicle: saline with Tween-80",143 % of control
same,T/C,"dose: 40.0 mg/kg/injection, schedule: Q01DX009 (sc), vehicle: saline with Tween-80",145 % of control
same,T/C,"dose: 40.0 mg/kg/injection, schedule: Q01DX009 (sc), vehicle: saline",145 % of control
same,T/C,"dose: 80.0 mg/kg/injection, schedule: Q01DX009 (sc), vehicle: saline, evaluated on day 30",127 [8 of 10 alive] and 148 % of control
same,T/C,"dose: 80.0 mg/kg/injection, schedule: Q01DX009 (sc), vehicle: saline, evaluated on day 45",130 % of control
same,T/C,"dose: 150.0 mg/kg/injection, schedule: Q01DX009 (sc), vehicle: saline with Tween-80",137 % of control
same,T/C,"dose: 160.0 mg/kg/injection, schedule: Q01DX009 (sc), vehicle: saline, evaluated on day 30",143 % of control
same,T/C,"dose: 160.0 mg/kg/injection, schedule: Q01DX009 (sc), vehicle: saline, evaluated on day 45",128 % of control
same,T/C,"dose: 210.0 mg/kg/injection, schedule: Q01DX009 (sc), vehicle: saline",149 % of control
same,T/C,"dose: 270.0 mg/kg/injection, schedule: Q01DX009 (sc), vehicle: saline",149 % of control
same,T/C,"dose: 320.0 mg/kg/injection, schedule: Q01DX009 (sc), vehicle: saline with Tween-80",147 % of control
same,T/C,"dose: 320.0 mg/kg/injection, schedule: Q01DX009 (sc), vehicle: saline, evaluated on day 30",134 % of control
same,T/C,"dose: 320.0 mg/kg/injection, schedule: Q01DX009 (sc), vehicle: saline, evaluated on day 45",142 % of control
same,T/C,"dose: 480.0 mg/kg/injection, schedule: Q01DX009 (sc), vehicle: saline with Tween-80, evaluated on day 30",143 % of control
same,T/C,"dose: 480.0 mg/kg/injection, schedule: Q01DX009 (sc), vehicle: saline with Tween-80, evaluated on day 45",143 % of control
same,T/C,"dose: 640.0 mg/kg/injection, schedule: Q01DX009 (sc), vehicle: saline with Tween-80",137 % of control
COC(=O)C(CCc1ccccc1[N+](=O)[O-])C(=O)OC,survivor count,"dose: 5.0 mg/kg/injection, schedule: Q01DX Z (sc), vehicle: other",1 of 10
same,survivor count,"dose: 8.4 mg/kg/injection, schedule: Q01DX Z (sc), vehicle: other",0 of 10
same,survivor count,"dose: 14.0 mg/kg/injection, schedule: Q01DX Z (sc), vehicle: other",2 of 10
same,survivor count,"dose: 23.0 mg/kg/injection, schedule: Q01DX Z (sc), vehicle: other",2 of 10
same,survivor count,"dose: 39.0 mg/kg/injection, schedule: Q01DX Z (sc), vehicle: other",2 of 10
same,survivor count,"dose: 65.0 mg/kg/injection, schedule: Q01DX Z (sc), vehicle: other",1 of 10
same,survivor count,"dose: 108.0 mg/kg/injection, schedule: Q01DX Z (sc), vehicle: other",0 of 10
same,survivor count,"dose: 180.0 mg/kg/injection, schedule: Q01DX Z (sc), vehicle: other",0 of 10
"Cc1c2oc3c(C)ccc(C(=O)N[C@@H]4C(=O)N[C@H](C(C)C)C(=O)N5CCC[C@H]5C(=O)N(C)CC(=O)N(C)[C@@H](C(C)C)C(=O)O[C@H]4C)c3nc-2c(C(=O)N[C@@H]2C(=O)N[C@H](C(C)C)C(=O)N3CCC[C@H]3C(=O)N(C)CC(=O)N(C)[C@@H](C(C)C)C(=O)O[C@H]2C)c(N)c1=O (I: [aThr][dV]P[Sar][NMeV] / II: [aThr][dV]P[Sar][NMeV]; ester I:1-I:C, II:1-II:C; linker I:N-II:N via Actinocin(9to1))",survivor count,"dose: 0.08 mg/kg/injection, schedule: Q01DX Z (sc), vehicle: saline",3 of 8
same,T/C,"dose: 0.14 mg/kg/injection, schedule: Q01DX Z (sc), vehicle: other",137 % of control
same,survivor count,"dose: 0.14 mg/kg/injection, schedule: Q01DX Z (sc), vehicle: saline",4 of 8
same,T/C,"dose: 0.15 mg/kg/injection, schedule: Q01DX Z (sc), vehicle: other",137 % of control
same,T/C,"dose: 0.23 mg/kg/injection, schedule: Q01DX Z (sc), vehicle: other",137 % of control
same,survivor count,"dose: 0.23 mg/kg/injection, schedule: Q01DX Z (sc), vehicle: saline",2 of 8
same,T/C,"dose: 0.25 mg/kg/injection, schedule: Q01DX Z (sc), vehicle: other",125 % of control
same,T/C,"dose: 0.39 mg/kg/injection, schedule: Q01DX Z (sc), vehicle: other",125 % of control
same,survivor count,"dose: 0.39 mg/kg/injection, schedule: Q01DX Z (sc), vehicle: saline",0 of 8
same,T/C,"dose: 0.39 mg/kg/injection, schedule: Q07DX Z (sc), vehicle: other",125 % of control
same,survivor count,"dose: 0.65 mg/kg/injection, schedule: Q01DX Z (sc), vehicle: saline",2 of 8
same,T/C,"dose: 0.65 mg/kg/injection, schedule: Q07DX Z (sc), vehicle: other",125 and 137 % of control
same,survivor count,"dose: 1.08 mg/kg/injection, schedule: Q01DX Z (sc), vehicle: saline",3 of 8
same,T/C,"dose: 1.08 mg/kg/injection, schedule: Q07DX Z (sc), vehicle: other",125 and 137 % of control
same,T/C,"dose: 1.8 mg/kg/injection, schedule: Q01DX Z (sc), vehicle: saline",135 % of control [7 of 8 alive]
same,survivor count,"dose: 1.8 mg/kg/injection, schedule: Q07DX Z (sc), vehicle: other",5 of 8
same,survivor count,"dose: 12.0 micrograms/kg/injection, schedule: Q01DX009 (sc), vehicle: saline",6 of 10
same,survivor count,"dose: 25.0 micrograms/kg/injection, schedule: Q01DX009 (sc), vehicle: saline",4 of 10
same,survivor count,"dose: 400.0 micrograms/kg/injection, schedule: Q01DX009 (ip), vehicle: saline",9 of 10
O=C(O)c1cc(=O)[nH]c(=O)[nH]1,survivor count,"dose: 108.0 mg/kg/injection, schedule: Q01DX Z (sc), vehicle: saline",6 of 10
same,survivor count,"dose: 180.0 mg/kg/injection, schedule: Q01DX Z (sc), vehicle: saline",5 of 10
same,survivor count,"dose: 500.0 mg/kg/injection, schedule: Q01DX Z (sc), vehicle: saline",5 of 10
same,survivor count,"dose: 833.0 mg/kg/injection, schedule: Q01DX Z (sc), vehicle: saline",5 of 10
Oc1cc(CN(CCCl)CCCl)c(O)cc1CN(CCCl)CCCl,survivor count,"dose: 300.0 mg/kg/injection, schedule: Q01DX Z (sc), vehicle: methylcellulose (MC)",1 of 10
same,survivor count,"dose: 500.0 mg/kg/injection, schedule: Q01DX Z (sc), vehicle: methylcellulose (MC)",0 of 10
CCOC(C)C(/C=N/NC(N)=S)=NNC(N)=S (configuration not stated),survivor count,"dose: 500.0 mg/kg/injection, schedule: Q01DX Z (sc), vehicle: carboxymethylcellulose (CMC)",8 of 8
